Results: PubChem BioAssay AID504847 (National Center for Advancing Translational Sciences (NCATS), 2011)
The whole screen tested about 400,000 compounds, of which about 3,700 (0.93%) were called active. The shares of active, inactive and inconclusive entries below differ from those in the screen. Calls follow the shape of the dose curve; as a rule, active = well fitted inhibition curve with a large enough effect; inconclusive = small, poorly fitted or top-dose-only effect, or another doubt; inactive = no such curve, though single readings can be large or run the other way. Where the call is inconclusive, the potency comes from a doubtful curve fit. The source holds several records for some structures; these can differ, active in one and inactive in another.

Sequences of proteins named here, by UniProt entry; tags and fusion partners are left off. A change or cut given only in a name is not applied to a line headed by its entry.
UniProt P11473: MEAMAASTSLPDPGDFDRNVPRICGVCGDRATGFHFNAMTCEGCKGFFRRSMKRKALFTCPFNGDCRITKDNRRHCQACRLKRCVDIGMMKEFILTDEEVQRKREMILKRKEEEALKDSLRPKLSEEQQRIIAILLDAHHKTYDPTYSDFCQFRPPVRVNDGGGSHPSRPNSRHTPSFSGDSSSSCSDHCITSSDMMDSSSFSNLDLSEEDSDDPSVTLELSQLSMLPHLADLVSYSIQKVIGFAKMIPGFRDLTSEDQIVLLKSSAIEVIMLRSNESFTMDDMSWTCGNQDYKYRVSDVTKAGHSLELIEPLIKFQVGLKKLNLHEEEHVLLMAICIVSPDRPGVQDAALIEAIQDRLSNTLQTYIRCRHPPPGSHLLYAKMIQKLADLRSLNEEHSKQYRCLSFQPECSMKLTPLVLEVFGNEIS

The compounds below were run against Vitamin D3 receptor (Homo sapiens) (UniProt P11473) (assay: Inhibitors of the vitamin D receptor (VDR): qHTS). Details: VDR-SRC2-3 peptide fluorescence polarization, 2 h; max response, negative = inhibition: active compounds read low.
Outline: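 Inhibition of the VDR/SRC2-3 peptide interaction is quantified by fluorescence polarization. Compounds (23 nl, pintool) incubate with the reagents for 2 hours at ambient room temperature.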
% is scaled to controls: 0 for no effect and ±100 for the full control effect; potency is read from the fitted curve at half-maximal effect.

Max response, negative = inhibition, inactive:
O=C(NC(=S)Nc1cccc(NC(=O)c2ccccc2)c1)c1cccc([N+](=O)[O-])c1 -10.4%, N#Cc1c(C(F)(F)F)cc(-c2cccs2)nc1SCc1ccc(Cl)nc1 -1.63%, COc1cccc(NC(=O)C(=O)N/N=C(\C)CC(=O)Nc2ccc(NC(C)=O)cc2)c1 6.29%, Cc1nc(NCc2ccccc2)c2cc[nH]c2n1 -4.57%, NCC1O[C@@H](OC2C(N)C[C@H](N)[C@@H](O[C@H]3OC(CO)C(O)C(N)C3O)C2O)C(O)C(O)C1O (some centres not stated) -4.45%, CCN(CC)c1ccc(/C=N/N2C(C)CCCC2C)c(O)c1 (configuration not stated) 2.4%, COc1ccccc1CNC(=O)Cc1c(C)c2cc3c(C)coc3c(C)c2oc1=O 6.19%, CCn1c(C(=O)Nc2ccccc2C(=O)OC)cc2sc(Cl)cc21 -3.28%, CS(=O)(=O)N1CCN(Cc2ccc(C(F)(F)F)cc2)CC1 -3.2%, Clc1cccc(COn2c(-c3ccc(Cl)cc3Cl)nc3ncccc32)c1 -7.09%, COc1ccccc1-c1nnc(NC(=O)c2ccc(S(=O)(=O)N(C)Cc3ccccc3)cc2)o1 17.7%, CC(C)[C@H](/C=C/C[Si](C)(C)C)[C@H](C)C(O)/C=C/CCCOC(=O)C(C)(C)C (some centres not stated) 0.629%, S=C(NCCc1ccccn1)Nc1cccc(Cl)c1 3.3%, CCCCC(=O)NC(=S)Nc1nnn(CCC)n1 -22.4%, O=c1c2oc3ccccc3c2n(Cc2ccccc2F)c(=O)n1Cc1ccc2c(c1)OCO2 3.02%, O=C(Cc1cccc(F)c1)N1CCOCC1 -10%, COC(=O)N1CCC2(CC1)CN(C(=O)Nc1cccc(F)c1)C2 0.244%, CCOC(=O)C1=C(C)N(CCCCCC(=O)O)C(=O)NC1c1ccc([N+](=O)[O-])cc1 (configuration not stated) -5.33%, CC1Cc2cc(/C=C3/SC(N4CCC(C(N)=O)CC4)=NC3=O)ccc2O1 (configuration not stated) -19.6%, Fc1ccc(C(NCCc2ccc(Cl)cc2)c2nnc(-c3ccccc3Cl)o2)cc1 (configuration not stated) 8.52%, CCOC(=O)c1ccc(-n2c(CN3CCC(O)CC3)nc3ccc([N+](=O)[O-])cc3c2=O)cc1 -14.3%, CC(Oc1ccc(Cl)cc1Cl)C(=O)NC(=S)N1CCc2ccccc21 (configuration not stated) -1.73%, CCCCOc1ccc(C(=O)NCC(=O)OC2CCOC2=O)cc1 (configuration not stated) -11.2%, Nc1c(C(=O)NCc2ccco2)c2nc3ccccc3nc2n1CCc1ccccc1F 0.208%, O=C(CCOc1ccccc1)OCC(=O)c1cc2ccccc2o1 5.45%

Potency, active:
Cc1ccccc1Oc1nc2c(C)cccn2c(=O)c1/C=C(\C#N)C(=O)Nc1c(C)n(C)n(-c2ccccc2)c1=O 50.1 µM, CC(=O)N[C@@H](CSC/C=C(\C)CC/C=C(\C)CCC=C(C)C)C(=O)O 50.1 µM, NC(=O)c1c(NC(=O)CCCn2cnc([N+](=O)[O-])n2)sc2c1CCCC2 44.7 µM, C/C(=N\NC(=O)c1cccnc1)c1ccc(OC2OCCOC2Oc2ccc(/C(C)=N/NC(=O)c3cccnc3)cc2)cc1 (configuration not stated) 39.8 µM, CCCCCCCC/C=C/CCCCCCCC(=O)NCCOP(=O)(O)O 28.2 µM, O=C(CSc1cccc2cccnc12)OCC(=O)c1ccccc1 20 µM, CCOc1ccccc1C=Nc1ccccc1C(=O)Nc1ccccc1 25.1 µM, O=C(COc1ccccc1/C=C\c1[nH]c(=O)[nH]c(=O)c1[N+](=O)[O-])Nc1ccccc1 20 µM

Potency, inconclusive:
COc1ccc(NC(=O)c2c(Nc3ccccc3)sc(C(=O)c3ccc(F)cc3)c2N)cc1 89.1 µM [inhibitor, single point], O=C(O)c1ccc(NS(=O)(=O)c2ccc3c(c2)C2C=CCC2C(c2ccccc2F)N3)cc1 (configuration not stated) 22.4 µM [inhibitor, full curve, poor fit], Nc1ncnc2c1nc(Cl)n2[C@@H]1O[C@H](CO)[C@@H](O)[C@@H]1O 25.1 µM [inhibitor, partial curve, poor fit], Cc1[nH]n(-c2ccccc2)c(=S)c1C=NCCCN=Cc1c(C)[nH]n(-c2ccccc2)c1=S 56.2 µM [inhibitor, partial curve, poor fit], COC(=O)c1c(NC(=O)c2ccccc2)sc2c1CC(C)(C)NC2(C)C 11.2 µM [inhibitor, full curve, poor fit], CN(C)c1ccc(NC(=O)C2C3C=CC(C3)C2C(=O)O)cc1 (configuration not stated) 1.58 µM [inhibitor, full curve, poor fit], O=C(Nn1cnnc1)c1ccc(Br)s1 89.1 µM [inhibitor, single point], O=C1NN(c2ccccc2)C(=O)/C1=C/c1ccc(-c2ccc(Cl)c(C(=O)O)c2)o1 89.1 µM [inhibitor, single point], Cc1ccc(NS(=O)(=O)c2ccc3c(c2)CCN3C(=O)C2CC2)c(C)c1 89.1 µM [inhibitor, single point], O=C(Nc1ccc(Cl)cc1)[C@@H]1[C@@H]2C(=O)N(c3ccc(Cl)cc3)C(=O)[C@@H]2[C@H]2C=CC=NN21 2.82 µM [inhibitor, full curve], CCOC(=O)c1cc(-c2ccccc2)sc1NC(=O)CC 44.7 µM [inhibitor, partial curve, poor fit], CC(C)c1nc(SCC(=O)Nc2cccc(C(=O)O)c2)c2c3c(sc2n1)CCCC3 89.1 µM [inhibitor, single point], COc1ccc(Cc2c(O)nc(SC)n(C(C)=O)c2=O)cc1 56.2 µM [inhibitor, partial curve, poor fit], COc1ccc(C(=O)CC(=O)C(=O)NCCc2cccc(C)c2)cc1 79.4 µM [inhibitor, partial curve, poor fit], CCN(CC)C(=S)S 56.2 µM [inhibitor, partial curve, poor fit], COCc1ccc(C(=O)N2CCC(CCC(=O)Nc3cccc(C)c3)CC2)s1 89.1 µM [inhibitor, single point], CCOC(=O)c1c(C)[nH]c(C(=O)COC(=O)c2ccco2)c1C 79.4 µM [inhibitor, single point], COc1n[nH]c(C(=O)Nc2nc3ccccc3s2)c1[N+](=O)[O-] 89.1 µM [inhibitor, single point], CCOc1ccc2c(c1)C(=O)C(=O)N2CC1COc2ccccc2O1 (configuration not stated) 22.4 µM [inhibitor, full curve], NS(=O)(=O)c1ccc(NC(=O)CN2CCN(S(=O)(=O)c3ccc(F)cc3)CC2)cc1 39.8 µM [inhibitor, single point], N#C/C(=C\c1ccccc1)C(=O)Nc1cc(S(=O)(=O)N2CCOCC2)ccc1N1CCCC1 56.2 µM [inhibitor, partial curve, poor fit], O=C1NN(c2ccc(F)cc2)C(=O)/C1=C/c1cccs1 50.1 µM [inhibitor, partial curve], COc1cc(C)c(C(=O)Oc2cc(C)c(C(=O)O)c(O)c2C)c(OC)c1C 89.1 µM [inhibitor, single point], Cc1ccccc1N1C(=O)C(Cl)=C(N2CCOCC2)C1=O 70.8 µM [inhibitor, partial curve, poor fit], CC1(C)CC(=O)C=C(NC2=CC3OC(c4ccccc4)OCC3OC2=O)C1 (configuration not stated) 50.1 µM [inhibitor, partial curve, poor fit], CCN(CC)c1ccc(N=C2C(=O)Nc3ccccc32)cc1 3.55 µM [inhibitor, full curve, poor fit], COc1cc(COc2ccc3c(C)c(CCC(=O)O)c(=O)oc3c2)cc(OC)c1OC 79.4 µM [inhibitor, single point], CCOC(=O)C1=C(C)n2c(s/c(=C/c3cccc([N+](=O)[O-])c3)c2=O)=NC1c1ccc(O)c(OC)c1 (configuration not stated) 10 µM [inhibitor, partial curve, poor fit], COc1cc(C2/C(=C(\O)c3ccc4c(c3)CC(C)O4)C(=O)C(=O)N2c2nnc(C)s2)cc(OC)c1OC (configuration not stated) 3.16 µM [inhibitor, partial curve, poor fit], N/C(=C\C(=O)c1cc(Cl)ccc1O)C(Cl)(Cl)Cl 22.4 µM [inhibitor, partial curve, poor fit], COc1cc(/C=C2\SC(=S)N(C(Cc3ccccc3)C(=O)O)C2=O)ccc1O (configuration not stated) 100 µM [inhibitor, partial curve, poor fit], CCNc1ncc2ncc(=O)n(Cc3ccc(F)cc3)c2n1 44.7 µM [inhibitor, partial curve], Cc1ccc(N/N=C/c2c(C)c(C#N)c(=O)n(C)c2O)cc1C 56.2 µM [inhibitor, partial curve, poor fit], CCOC(=O)C1CCCN(C(=O)CCNS(=O)(=O)c2ccc3c(c2)CCC(=O)N3)C1 (configuration not stated) 31.6 µM [inhibitor, single point]
